Laboratory results as given in the supplement of paper PMC4683952.
Some of the results follow. No stated cut-off is given here; in the data, active = 2 or more and inactive = the rest. Repeats in this data set agree poorly, so a single value says little.

system: Lgr5 (MarsCy1-Lgr5-EGFP, U2OS); assay: cell-surface Lgr5 expression (SCi1 fluorescence, background-subtracted) relative to WT DMSO (fold of DMSO control); higher = more Lgr5 at the plasma membrane; settings: U2OS MarsCy1-Lgr5-EGFP stable; treatment time: overnight; library: ActiProbe-5K (TimTec); 25 µM

cell-surface Lgr5 expression, active:
CN1CCN(CC/C=C2\c3ccccc3Sc3ccc(S(=O)(=O)N(C)C)cc32)CC1 2.47

cell-surface Lgr5 expression, inactive:
C(=N\Nc1nnn[nH]1)/c1ccc2c(c1)OCO2 1.38, O=[N+]([O-])c1ccc2c(/N=N\c3ccc4ccccc4c3O)c(O)cc(S(=O)(=O)[O-])c2c1.[Na+] 1.17, O=C(CCCC(=O)NCCC1=CCCCC1)NCCC1=CCCCC1 0.983, N#C/C(=C\c1ccc[nH]1)C(=O)NC1CC1 1.4, C/C(=N\NC(=O)c1cnccn1)c1ccco1 1.14, O=C(N/N=C/c1cccs1)c1cccs1 1.19, Brc1ccccc1Cn1nnc(-c2ccccc2)n1 1.11, Cc1cc(C)c(C(N)=O)c(=S)[nH]1 1.23, O=[N+]([O-])c1cnn(CCl)c1 1.1, Cc1ccc(C2C(C#N)=C(N)SC(N)=C2C#N)s1 1.12, CC(C)N1C/C(=C/c2cccs2)C(=O)/C(=C/c2cccs2)C1 0.401, S=C(NC1CCCCC1)NC1CCCCC1 1.1, CCOC(C)Oc1ccc(Br)cc1 (stereo not drawn) 1.22, Cc1ccc2ccc3ccc(C)nc3c2n1 0.986, O=[N+]([O-])c1ccc(-n2cnnc2)cc1 1.24, CCc1[nH]nc2c1C1(CCOC1C)C(C#N)=C(N)O2 (stereo not drawn) 1.02, Cn1ncc(Br)c1C(=O)O 1.3, O=[N+]([O-])c1cc(Cl)ccc1N1CCCC1 1.25, Cc1nn(C)c(-c2nc(-c3ccc(Br)o3)no2)c1Cl 1.11, c1cc(CNc2csnc2-c2nnc(Nc3ccc4c(c3)OCO4)o2)ccn1 0.888, N#Cc1c(/N=C\c2ccco2)sc2c1CCCC2 1.18, COc1ccc(S(=O)(=O)N2CCc3ccccc32)cc1 1.18, C1CCC(=N/Nc2c(S(N3CCCCC3)(=O)=O)cc([N+]([O-])=O)cc2)/CCC1 1.05, O=[N+]([O-])C1(CO)COC2(OC1)C1CC3CC(C1)CC2C3 (stereo not drawn) 1.23, CCc1ccc2c(c1)C1(NN=C(c3ccc(C)cc3)S1)C(=O)N2 (stereo not drawn) 0.128, Clc1ccc(OCCSc2nc3ccc(Br)cc3[nH]2)cc1 1.18, O=[N+]([O-])c1ccc(-n2nnc3ccccc32)c([N+](=O)[O-])c1 1.5, CC(=O)OC[C@H]1O[C@@H](n2ncc(=O)[nH]c2=O)[C@H](OC(C)=O)[C@H]1OC(C)=O 1.35, c1ccc(-n2nnnc2SCSc2nnnn2-c2ccccc2)cc1 1.37, O=c1cc(O)c2sc3nc4c(c(C(F)(F)F)c3c2[nH]1)CCCC4 1.3, CSCCC(C(=O)O)N1CNC(=S)NC1 (stereo not drawn) 1.19, CCCCc1[nH]nc2c1C(c1ccc(Br)s1)C(C#N)=C(N)O2 (stereo not drawn) 1.78, OCC1COc2ccccc2O1 (stereo not drawn) 1.2, Cc1noc(-c2nonc2N)n1 0.981, S=c1[nH]ccn1-c1ccc2c(c1)OCO2 1.06, O=C(c1ccc(Br)o1)N1CCCC1 1.07, O=S(=O)(Nc1ccc(Cl)cn1)c1ccc(Br)cc1 1.14, O=S1(=O)CCN2C=C(Br)C=C(Br)C2=N1 1.4, Cc1nccn1C(C)CC(=O)O (stereo not drawn) 1.54, CCCCSc1nc2c(c(C(F)(F)F)c1C#N)CC(C)CC2 (stereo not drawn) 1.52, O=C1OC(c2ccccc2Br)=N/C1=C\c1cccc2ccccc12 1.67, Brc1ccc(Cn2ccc(-n3cnnn3)n2)cc1 1.06, Cn1cccc1/C=c1\sc2n(c1=O)C(N)=C(C#N)C(c1cccn1C)C=2C#N (stereo not drawn) 1.28, O=S(=O)(C/N=C(/NC(=S)Nc1ccccc1)c1ccccc1)c1ccccc1 1.45, CC(=C\CCC1(C(N(C(O1)=O)CCC([O-])=O)(O)C)C)/C (stereo not drawn) 1.05, CN1C(=O)/C(=c2/sc3nc4ccccc4n3c2=O)c2ccccc21 1.1, COC(=O)CCNc1n[nH]c(=O)[nH]c1=O 0.948, CN(C)Cc1cc(/C=N\C2CCCCC2)c(S)s1 1.03, C#CC(C)(C)NS(=O)(=O)c1cccc2nsnc12 0.996, O=c1nc[nH]c2c1nc(Br)n2C1OC(CO)C(O)C1O (stereo not drawn) 1.05, CC(=O)N1CCCC1C(=O)O (stereo not drawn) 1.27, O=c1[nH]c2ccc(F)cc2c(=O)c2ccccc12 0.908, CN1CCC2(CC1)Oc1ccc(Cl)cc1C1CC(c3ccc(Cl)cc3)=NN12 (stereo not drawn) 0.516, COc1cc(-c2nc(S)nc(N)c2C#N)cc(OC)c1OC 1.13, CCC(CC)NC1=NS(=O)(=O)c2ccccc21 1.14, O=c1[nH]cccc1-c1noc(-c2cnccn2)n1 1.33, CC(C)(O)c1cc(C(N)=O)no1 1.2, CCCCN(C)Cn1nc(O)ccc1=O 1.38, Cc1nc2[nH]nc(Cl)c2c(C)c1Cl 1.66, CCOC(=O)c1sc(N2N=C(C)/C(=C/c3ccc(CC)s3)C2=O)nc1C 1.32, Cc1cc(Cc2cc(C(C)(C)C)c(O)c(C(C)(C)C)c2)cc(C(C)(C)C)c1 0.806, O=C(O)Cn1nc(C(F)(F)F)c(Cl)c1C1CC1 1.18, Nc1ccc2c(c1)OC1(CCCC1)O2 1.02, c1ccc(-c2cnc3ccccc3n2)cc1 1.28, CSc1nc2n(n1)C(c1ccccc1)/C(=N/O)C(C)=N2 (stereo not drawn) 0.947, C=CCSc1nc(-c2cccnc2)ccc1C#N 0.948, Cc1ccc(C2Nc3ccccc3C(C)(C)O2)o1 (stereo not drawn) 1.18
